Measurements from publication PMC3903541.
Results are given in words; binding and its absence hold for the method and conditions named. For some of these results: In cells and extracts the contact can be indirect. Some binding calls cover weakened binding; strength is not graded here. For some of these results: Tags and fused reporters may be left off the sequences shown. Values belong to the binder of their own block, whether it stands above or below them.

What was measured:
[1] = biological target: T1, C2orf62, full-length yeast two-hybrid bait (pDBa) (human) (UniProt Q7Z7H3); experiment: two-hybrid; full-length C2orf62 in pDBa as bait in MaV203 yeast; human fetal brain cDNA library in pEXP502-AD as prey; growth on -WHL + 25 mM 3-AT, on -WUL and beta-galactosidase, all three positive; 30°C
T1 sequence: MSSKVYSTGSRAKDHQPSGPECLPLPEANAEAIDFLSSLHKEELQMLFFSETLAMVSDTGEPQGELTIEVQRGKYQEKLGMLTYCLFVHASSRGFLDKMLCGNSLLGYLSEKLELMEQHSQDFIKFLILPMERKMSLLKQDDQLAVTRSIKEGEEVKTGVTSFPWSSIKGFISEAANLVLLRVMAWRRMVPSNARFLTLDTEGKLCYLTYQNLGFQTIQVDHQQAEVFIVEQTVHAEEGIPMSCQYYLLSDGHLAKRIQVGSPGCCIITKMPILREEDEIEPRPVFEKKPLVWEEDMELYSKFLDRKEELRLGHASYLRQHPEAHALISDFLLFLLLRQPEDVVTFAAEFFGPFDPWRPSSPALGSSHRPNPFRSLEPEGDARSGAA

[2] = biological target: T2, PRKRA-GST (full-length) (human) (UniProt O75569); experiment: pull-down; GST fusion proteins on glutathione-agarose beads; pre-cleared lysate (1 mg protein) of V5-C2orf62-transfected HEK293T cells, 2 hrs at 4°C; anti-V5 Western blot; only the target purified
T2 sequence: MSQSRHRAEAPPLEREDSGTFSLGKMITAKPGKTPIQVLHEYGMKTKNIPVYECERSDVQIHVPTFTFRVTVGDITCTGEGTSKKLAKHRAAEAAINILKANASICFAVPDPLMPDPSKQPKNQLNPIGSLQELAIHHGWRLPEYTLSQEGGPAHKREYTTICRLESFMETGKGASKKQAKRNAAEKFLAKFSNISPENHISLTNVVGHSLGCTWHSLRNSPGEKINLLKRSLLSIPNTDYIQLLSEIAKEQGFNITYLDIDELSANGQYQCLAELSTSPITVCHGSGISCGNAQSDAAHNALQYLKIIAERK

[3] = biological target: T3, TTC17-GST (aa 945-1041) (human) (UniProt Q96AE7); experiment: as above
T3 sequence: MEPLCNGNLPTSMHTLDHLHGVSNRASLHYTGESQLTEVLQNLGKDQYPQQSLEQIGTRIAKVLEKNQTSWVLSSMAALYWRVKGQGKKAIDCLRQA

[4] = biological target: T4, mCherry-TTC17 (human) (UniProt Q96AE7); experiment: FRET or BRET; EGFP-C2orf62 and mCherry-TTC17 co-transfected in hTERT-RPE1 cells, confocal microscopy 24 h later; normalized FRET (FRETn) corrected for bleed-through
T4 sequence: T3 sequence

binding [1]: binds
B1: TTC17 (Tetratricopeptide repeat protein 17), yeast two-hybrid prey clone, C2orf62-interacting region aa 945-1041 (domain or fragment, UniProt Q96AE7 945-1041)
chain: T3 sequence

binding [2]: no binding | binding [3]: binds
B2: V5-C2orf62 (protein, UniProt Q7Z7H3 1-387)
chain: T1 sequence

binding [4]: binds
B3: EGFP-C2orf62 (protein, UniProt Q7Z7H3 1-387)
chain: T1 sequence
